This is one part of the list. The main result of the screen is listed elsewhere. These columns were measured beside it and carry no call. Compounds called inactive in the main read-out are mostly missing here. The note in brackets gives the kind of curve behind each potency; many fits are weak.
Assay: qHTS Assay to Find Inhibitors of Chronic Active B-Cell Receptor Signaling
Conditions: ABC-DLBCL IkBa-CBG/CBR reporter, luminescence ratio (green luciferase fused to IkBa over red control in TMD8 lymphoma cells), 4 h
How it was run: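 Compounds up to 46 uM were incubated four hours with TMD8 cells whose green CBG68 luciferase is fused to IkappaBalpha; red CBR luminescence normalised the signal, and concentration-effect curves were fitted to fusion, red and ratio data.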

[1] = measured here: CBR red luminescence, cell number

COc1ccc2nc(C)cc(NCc3ccc(F)cc3)c2c1
AC50 [1]: 7.08 µM [falling, partial curve, poor fit]

Cc1nn(-c2ccccc2)c2c1C1(C(=O)N(C)c3ccccc31)C(C#N)=C(N)O2 (stereo not given)
AC50 [1]: 16.4 µM [falling, partial curve, poor fit]

O=C(/C=C/c1ccco1)Nc1ccc(CN2CCOCC2)cc1
AC50 [1]: 35.5 µM [falling, single point]

Cc1ccc(N(NC(=O)C(O)(c2ccccc2)c2ccccc2)C(=O)CCl)cc1
AC50 [1]: 10.3 µM [falling, partial curve]

Cc1noc(C)c1CSc1nc2ccccc2n1CCc1ccccc1
AC50 [1]: 0.517 µM [rising, full curve, poor fit]

Oc1c(C(Nc2nccs2)c2ccc(C(F)(F)F)cc2)ccc2cccnc12 (stereo not given)
AC50 [1]: 0.631 µM [falling, full curve, poor fit]

CC(=O)CCC(=O)N1CCCC(N2CCN(c3cccc(Cl)c3)CC2)C1 (stereo not given)
AC50 [1]: 17.8 µM [rising, partial curve, poor fit]

O=C(NCCc1ccc2c(c1)OCCO2)c1cc(S(=O)(=O)N2CCCC2)ccc1Cl
AC50 [1]: 6.51 µM [rising, partial curve, poor fit]

CCOC(=O)c1cc(C#N)c(Oc2ccccc2)nc1-c1ccccc1
AC50 [1]: 1.3 µM [rising, full curve]

CCCCOc1ccc(C(=O)Nc2ccc(S(=O)(=O)Nc3onc(C)c3C)cc2)cc1
AC50 [1]: 12.6 µM [falling, single point]

Cc1ccc(-n2c(SCc3ccccc3F)nc3[nH]ncc3c2=O)cc1C
AC50 [1]: 22.4 µM [falling, single point]

CC(Cc1cccs1)NC(=O)Nc1ccccc1 (stereo not given)
AC50 [1]: 5.62 µM [rising, single point]

O=C(OCC(=O)N1N=C(c2ccc(Cl)cc2)CC1c1ccco1)c1cccnc1 (stereo not given)
AC50 [1]: 5.17 µM [falling, single point]

CCOC(=O)CN1C(=O)N(CC)C(C)=C(C(=O)OC)[C@@H]1c1ccccc1
AC50 [1]: 35.5 µM [rising, single point]

CCNC(=O)COC(=O)c1ccc(-c2nc3ccccc3s2)s1
AC50 [1]: 6.31 µM [falling, single point]

O=C(Nc1ccccc1)c1cc(-c2ccccc2Cl)no1
AC50 [1]: 2.51 µM [falling, partial curve]

CCc1c(O)nc(SCC(=O)Nc2nc3ccccc3s2)n(C2CCCCC2)c1=O
AC50 [1]: 12.6 µM [falling, partial curve, poor fit]

O=C(Cc1ccc(Cl)cc1)Nc1ccccn1
AC50 [1]: 0.316 µM [rising, full curve, poor fit]

COc1cccc(OCc2nnc(-c3cccs3)o2)c1
AC50 [1]: 35.5 µM [falling, single point]

c1ccc(CSc2ncn(-c3ccccc3)n2)cc1
AC50 [1]: 12.6 µM [falling, single point]

CC1CN(c2cc(=O)n(-c3ccccc3)c(=O)[nH]2)CC(C)O1 (stereo not given)
AC50 [1]: 11.6 µM [rising, partial curve, poor fit]

CC1=CC(=C(C#N)c2nc3ccccc3s2)C=C(C)N1Cc1ccco1
AC50 [1]: 20 µM [rising, single point]

CCn1c(C)cc(/C=C2\NC(=O)N(CC(=O)Nc3ccc(F)cc3)C2=O)c1C
AC50 [1]: 35.5 µM [rising, single point]

C=CCSc1nnc2nc3c(nn12)c1cc(C)ccc1n3CC=C
AC50 [1]: 8.91 µM [rising, partial curve, poor fit]

Oc1ccc(-c2nnc(Nc3ccccc3)c3ccccc23)cc1
AC50 (measured here: IkBa-CBG green luminescence): 3.98 µM [falling, partial curve, poor fit]

O=C(CSc1nc2c(c(=O)[nH]1)CN(Cc1ccc(F)cc1)CC2)Nc1ccc(F)cc1
AC50 [1]: 32.6 µM [falling, partial curve, poor fit]

Cc1ccc(S(=O)(=O)Cn2nnnc2C(c2ccc(F)cc2)N2CCC(C(N)=O)CC2)cc1 (stereo not given)
AC50 [1]: 23.1 µM [rising, partial curve, poor fit]

Oc1ccccc1C=Nc1ccccc1-c1nc2ccccc2[nH]1
AC50 [1]: 7.31 µM [falling, partial curve]

O=C(NCC1CCCO1)c1cccc(NC(=O)c2cccs2)c1 (stereo not given)
AC50 [1]: 35.5 µM [falling, single point]

C[C@]1(C(=O)NCCc2c[nH]c3ccccc23)C=C[C@@H](Cc2ccccc2)N1C(=O)c1ccccc1
AC50 [1]: 23.1 µM [falling, partial curve, poor fit]

COc1ccc(C(=O)NC2=C(C#N)CCC2)cc1OC
AC50 [1]: 2.06 µM [rising, partial curve, poor fit]

O=C(Nc1nccs1)c1ccc2nccnc2c1
AC50 [1]: 20 µM [falling, partial curve, poor fit]

C/C(=N/NC(=O)c1ccc2nc[nH]c2c1)c1cccs1
AC50 [1]: 1.64 µM [rising, partial curve, poor fit]

Cc1ccc(NC(=O)CN2CCN(Cc3ccccc3)CC2)c(Br)c1
AC50 [1]: 35.5 µM [falling, single point]

CCOc1ccccc1-n1c(SCC(=O)NC(C)(C)C)nnc1-c1ccoc1C
AC50 [1]: 35.5 µM [falling, single point]

CC(=O)Nc1ccc(NC(=O)C(C)OC(=O)CCCc2c[nH]c3ccccc23)cc1 (stereo not given)
AC50 [1]: 25.9 µM [rising, partial curve, poor fit]

COc1cc2c(cc1NC(=O)CC1SC(N3CCCC3)=NC1=O)oc1ccccc12 (stereo not given)
AC50 [1]: 25.1 µM [falling, single point]

CC(Cl)C(=O)c1ccc2c(c1)CCN2C(=O)C1CC1 (stereo not given)
AC50 [1]: 7.08 µM [rising, partial curve]

Cc1cccc(NS(=O)(=O)c2cccc(C(=O)N3CCCCCC3)c2)c1
AC50 [1]: 3.26 µM [rising, single point]

Cc1cc(C)n(C(=O)CNC(=O)c2cccc(Cl)c2)n1
AC50 [1]: 20 µM [rising, partial curve, poor fit]

CCCSc1ccc(C(=O)Nc2ccc(F)cc2F)cn1
AC50 [1]: 3.55 µM [falling, partial curve, poor fit]

O=C(/C=N/O)Nc1ccccc1C(=O)O
AC50 [1]: 10.3 µM [falling, partial curve, poor fit]

CCOC(=O)c1ccc(Nc2cnc3ccccc3n2)cc1
AC50 [1]: 0.1 µM [falling, full curve, poor fit]

C=C1CCC[C@]2(C)C[C@H]3OC(=O)C(CN(C)CC(OC)OC)[C@H]3CC12 (stereo not given in full)
AC50 [1]: 11.2 µM [falling, partial curve]

O=C(NCC1CCCO1)c1ccc2nc(N3CCCCC3)sc2c1 (stereo not given)
AC50 [1]: 4.61 µM [rising, single point]

COc1ccc(NC(=S)Nc2ccc(OC(F)F)cc2)cn1
AC50 [1]: 3.98 µM [rising, single point]

CCCNC(=O)COC(=O)c1n[nH]c2ccccc12
AC50 [1]: 0.794 µM [rising, full curve, poor fit]

Cc1nc(C)c(-c2nnc(-c3ccccc3Cl)o2)cc1C(=O)NN
AC50 [1]: 0.398 µM [rising, full curve, poor fit]

COC(=O)c1cc2c(N)c(C(=O)c3ccccc3)sc2nc1C(OC)OC
AC50 [1]: 6.31 µM [falling, partial curve]

CC(Nc1cc(N2CCN(S(=O)(=O)N(C)C)CC2)ccc1[N+](=O)[O-])c1ccccc1 (stereo not given)
AC50 [1]: 11.2 µM [rising, partial curve, poor fit]

COC(=O)c1ccccc1NC1=C/C(=N\S(=O)(=O)c2cccs2)c2ccccc2C1=O
AC50 [1]: 0.651 µM [falling, full curve]

COc1ccccc1/C=C1\SC(=O)N(CCC(=O)NNC(=O)c2ccccc2Cl)C1=O
AC50 [1]: 0.0146 µM [falling, full curve, poor fit]

CCOC(=O)N1CCC(NCCNC(=O)c2ccc(Cl)cc2)CC1
AC50 [1]: 29.1 µM [rising, single point]

O=[N+]([O-])c1ccccc1/C=C/C=N/n1c(-c2ccccc2F)n[nH]c1=S
AC50 [1]: 7.08 µM [falling, full curve, poor fit]

Cc1ccc(CCNC(=O)CN2CCN(Cc3ccccc3F)C2=O)cc1
AC50 [1]: 29.1 µM [falling, single point]

Cn1nnnc1Sc1ncnc2scc(-c3ccc(-c4ccccc4)cc3)c12
AC50 [1]: 8.2 µM [falling, partial curve]

COc1ccc(Oc2ccc(NC(=O)c3ccccc3C)cc2)cc1
AC50 [1]: 2 µM [rising, partial curve, poor fit]

COc1ccc(C2C3=C(CCCC3=O)NC3=C2C(=O)c2ccccc23)cc1 (stereo not given)
AC50 [1]: 14.1 µM [rising, single point]

O=C(NCc1ccco1)Nc1ccc2nsnc2c1
AC50 [1]: 16.4 µM [falling, partial curve]

COc1ccccc1N1CCN(C2CCC(C)CC2)CC1 (stereo not given)
AC50 [1]: 1.26 µM [rising, full curve, poor fit]

COc1ccc(S(=O)(=O)N2CCCCCC2)cc1C(=O)Nc1ccccn1
AC50 [1]: 1.26 µM [falling, full curve, poor fit]

OCC1(Cc2ccc(Cl)cc2)CCN(Cc2ccc3nsnc3c2)CC1
AC50 [1]: 6.31 µM [falling, single point]

NC(=O)CC(NC(=O)c1ccc(Br)cc1)c1ccc(N2CCN(c3ccccc3)CC2)c([N+](=O)[O-])c1 (stereo not given)
AC50 [1]: 35.5 µM [falling, single point]

Cc1ccccc1NCC(=O)N/N=C\c1ccc2c(c1)OCO2
AC50 [1]: 31.6 µM [falling, single point]

COc1ccc(CC(=O)O/N=C(\N)Cc2cccc3ccccc23)cc1OC
AC50 [1]: 29.1 µM [rising, single point]
